Library screen at single concentrations

Results are given as percent effect. The controls that fix the scale are not given in the record; negative values are as filed. Compounds were drawn at random from those tested, without regard to their results.

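Whole-parasite assay of Trypanosoma brucei over 72 hours; the read-out is not stated. Concentration: 10 µM. Direction is inferred from retests: higher values go with stronger inhibition. Values scatter widely below zero; nearly all retest evidence comes from the higher of the two concentrations used. Of about 2,700 compounds tested this way, about 14 (0.51%) reached 50% or more in at least one test.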

{"compound": "COc1c(C2CCCN2C(=O)c2ccnc(C)n2)c(C)nn1C", "stereo": "stereo not shown", "Percent Effect": -47.93}
{"compound": "CN1CCN(c2cc(CNC(=O)c3ccsc3)ccn2)CC1", "Percent Effect": -6.57}
{"compound": "CCOc1ncccc1CNC(=O)Nc1ccc(CC)cc1", "Percent Effect": -37.09}
{"compound": "COc1ncccc1NC(=O)N(Cc1ccc(C(N)=O)cc1)C1CC1", "Percent Effect": -43.49}
{"compound": "CC(=O)N(Cc1noc(C)n1)C1CCN(Cc2cnc(C)s2)C1", "stereo": "stereo not shown", "Percent Effect": -52.98}
{"compound": "OC(COCc1ccccc1)CN1CCC(c2ccn[nH]2)CC1", "stereo": "stereo not shown", "Percent Effect": -22.99}
{"compound": "CCC1CCCN(C(=O)NCc2cccnc2-n2cccn2)C1", "stereo": "stereo not shown", "Percent Effect": -30.86}
{"compound": "Cn1ccc(C(=O)NCc2ccc(N3CCOCC3)nc2)cc1=O", "Percent Effect": -18.52}
{"compound": "CCn1cc(NC(=O)Nc2ccc3c(c2)OCCO3)cn1", "Percent Effect": -36.2}
{"compound": "Cc1nc(CC(=O)N2CCn3c(nnc3C(C)C)C2)cs1", "Percent Effect": -8.806}
{"compound": "Cc1nn(-c2ccccc2)cc1C(=O)N1CCCC(n2ccnc2)C1", "stereo": "stereo not shown", "Percent Effect": -21.15}
{"compound": "CN1CC(C(=O)NCc2cccnc2-n2cccn2)CC1=O", "stereo": "stereo not shown", "Percent Effect": -32.12}
{"compound": "Cc1cnc(CN2CCCC2c2cnn(C)c2)cn1", "stereo": "stereo not shown", "Percent Effect": -0.4874}
{"compound": "CCc1nc(C2CCCN(C(=O)C(C)(C)NS(C)(=O)=O)C2)no1", "stereo": "stereo not shown", "Percent Effect": -39.3}
{"compound": "O=C(NCCn1ccnc1)N1CCN(Cc2ccco2)CC1", "Percent Effect": -48.84}
{"compound": "Cc1cnc(C(=O)N2CCCCC2c2nc(C)cs2)cn1", "stereo": "stereo not shown", "Percent Effect": -69.39}
{"compound": "Cc1ccc(CNC(=O)CN2CCCC(Cn3cncn3)C2)cc1", "stereo": "stereo not shown", "Percent Effect": -15.89}
{"compound": "Cc1cnn(CC2CN(CC(=O)N(C)Cc3ccsc3)CCO2)c1", "stereo": "stereo not shown", "Percent Effect": -38.1}
{"compound": "Cc1n[nH]c(C2CN(C(=O)CCc3cscn3)CCO2)n1", "stereo": "stereo not shown", "Percent Effect": -61.3}
{"compound": "COc1cccc(OCC(=O)NS(=O)(=O)c2cccnc2)c1", "Percent Effect": -64.83}
{"compound": "COCCCNC(=O)Nc1ccc(-n2cncn2)c(C(F)(F)F)c1", "Percent Effect": -71.9}
{"compound": "Cc1nc(CN(Cc2ccc3c(c2)OCCO3)C2CCCC2)no1", "Percent Effect": -46.84}
{"compound": "CCOc1ccnc(N2CCN(C(=O)c3ccoc3C)CC2)n1", "Percent Effect": -2.719}
{"compound": "Cc1cnn(CC2CCCCN2Cc2c(C)noc2C)c1", "stereo": "stereo not shown", "Percent Effect": -44.8}
{"compound": "Cc1cc(C(=O)N2CCCC(n3ccnc3)C2)c(C)n1C1CC1", "stereo": "stereo not shown", "Percent Effect": -23.48}
{"compound": "CN(Cc1cccc(F)c1)C(=O)c1cc2c([nH]c1=O)CCCC2=O", "Percent Effect": -46.62}
{"compound": "c1ccc(-n2cc(CNC3CCc4ncnn4C3)cn2)cc1", "stereo": "stereo not shown", "Percent Effect": -57.59}
{"compound": "CCc1noc(CN2CCN(CC(O)c3ccccc3)CC2)n1", "stereo": "stereo not shown", "Percent Effect": -25.3}
{"compound": "CCc1cnc(CN2CCC(N(C)Cc3noc(C)n3)C2)o1", "stereo": "stereo not shown", "Percent Effect": -9.253}
{"compound": "COc1cc(C)nc(N2CCN(C(=O)COC3CCCC3)CC2)n1", "Percent Effect": -68.81}
{"compound": "Cc1cc(C)n(C2CN(CC(=O)NC3CCS(=O)(=O)C3)C2)n1", "stereo": "stereo not shown", "Percent Effect": -14.66}
{"compound": "CC(C)c1ncc2c(n1)CN(Cc1nnc(Cc3ccccc3)o1)CC2", "Percent Effect": -61.41}

The last 2 entries again:

| compound | Percent Effect |
|---|---|
| `Cc1cc(C)n(C2CN(CC(=O)NC3CCS(=O)(=O)C3)C2)n1` (stereo not shown) | -14.66 |
| `CC(C)c1ncc2c(n1)CN(Cc1nnc(Cc3ccccc3)o1)CC2` | -61.41 |

Source: ChEMBL document CHEMBL3988442, “University of Dundee, Small-Polar-MMV Screening Library” (2021).